Data on 28 targets can be found in the supplement of paper PMC12819154, “High-throughput peptide-centric local stability assay extends protein–ligand identification to membrane proteins, tissues and bacteria” (Nature Structural & Molecular Biology, 2025).

Chains of the proteins cited; added tags and fusions are not shown. Lines headed by an entry give the natural chain unless they say otherwise; changes in a name come on top.
UniProt Q15583: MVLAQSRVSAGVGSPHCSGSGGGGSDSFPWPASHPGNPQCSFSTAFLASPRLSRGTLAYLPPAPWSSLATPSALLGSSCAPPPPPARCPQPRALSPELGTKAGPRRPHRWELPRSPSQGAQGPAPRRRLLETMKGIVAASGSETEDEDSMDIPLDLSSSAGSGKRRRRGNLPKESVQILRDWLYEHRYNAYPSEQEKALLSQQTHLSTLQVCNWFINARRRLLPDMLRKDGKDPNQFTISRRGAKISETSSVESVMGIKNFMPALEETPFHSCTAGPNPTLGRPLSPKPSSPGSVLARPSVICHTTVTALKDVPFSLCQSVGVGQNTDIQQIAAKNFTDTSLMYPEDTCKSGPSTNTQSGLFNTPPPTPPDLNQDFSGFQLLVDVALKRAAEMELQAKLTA
UniProt Q15776: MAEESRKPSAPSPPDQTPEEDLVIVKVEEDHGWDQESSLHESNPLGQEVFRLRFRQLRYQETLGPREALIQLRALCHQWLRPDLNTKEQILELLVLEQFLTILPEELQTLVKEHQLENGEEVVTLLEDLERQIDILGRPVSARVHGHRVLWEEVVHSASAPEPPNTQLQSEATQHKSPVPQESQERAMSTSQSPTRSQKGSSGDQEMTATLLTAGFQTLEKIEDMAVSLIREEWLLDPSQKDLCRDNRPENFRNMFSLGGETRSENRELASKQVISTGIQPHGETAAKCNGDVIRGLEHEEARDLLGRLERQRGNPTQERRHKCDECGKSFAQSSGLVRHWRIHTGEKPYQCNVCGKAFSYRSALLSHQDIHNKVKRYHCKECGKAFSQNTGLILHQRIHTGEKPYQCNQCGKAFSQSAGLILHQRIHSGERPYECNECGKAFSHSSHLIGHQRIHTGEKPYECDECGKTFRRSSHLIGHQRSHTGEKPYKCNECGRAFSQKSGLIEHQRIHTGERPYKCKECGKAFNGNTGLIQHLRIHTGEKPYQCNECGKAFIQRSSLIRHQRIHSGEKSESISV
UniProt Q29980: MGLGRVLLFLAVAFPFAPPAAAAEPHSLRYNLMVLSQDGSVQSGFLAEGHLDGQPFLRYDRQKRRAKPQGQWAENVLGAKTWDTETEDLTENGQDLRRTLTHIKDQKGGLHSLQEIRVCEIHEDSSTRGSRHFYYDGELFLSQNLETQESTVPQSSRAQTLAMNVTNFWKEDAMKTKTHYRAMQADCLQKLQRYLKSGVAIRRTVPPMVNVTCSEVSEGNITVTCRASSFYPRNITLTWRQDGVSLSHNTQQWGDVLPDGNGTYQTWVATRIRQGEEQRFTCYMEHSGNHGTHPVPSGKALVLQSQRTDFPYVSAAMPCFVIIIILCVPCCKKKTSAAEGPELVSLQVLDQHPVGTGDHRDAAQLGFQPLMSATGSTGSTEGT
UniProt Q16795, whole entry: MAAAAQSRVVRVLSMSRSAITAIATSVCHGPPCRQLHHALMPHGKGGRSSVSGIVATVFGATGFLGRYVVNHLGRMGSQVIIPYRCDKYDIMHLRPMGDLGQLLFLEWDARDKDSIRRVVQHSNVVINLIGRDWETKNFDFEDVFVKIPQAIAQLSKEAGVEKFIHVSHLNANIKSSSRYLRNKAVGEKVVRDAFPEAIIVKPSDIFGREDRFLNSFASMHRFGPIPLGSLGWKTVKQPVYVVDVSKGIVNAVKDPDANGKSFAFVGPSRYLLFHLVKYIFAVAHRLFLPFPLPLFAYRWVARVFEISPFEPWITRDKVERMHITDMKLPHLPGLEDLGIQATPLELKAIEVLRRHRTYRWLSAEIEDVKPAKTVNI
UniProt Q3ZCM7, whole entry: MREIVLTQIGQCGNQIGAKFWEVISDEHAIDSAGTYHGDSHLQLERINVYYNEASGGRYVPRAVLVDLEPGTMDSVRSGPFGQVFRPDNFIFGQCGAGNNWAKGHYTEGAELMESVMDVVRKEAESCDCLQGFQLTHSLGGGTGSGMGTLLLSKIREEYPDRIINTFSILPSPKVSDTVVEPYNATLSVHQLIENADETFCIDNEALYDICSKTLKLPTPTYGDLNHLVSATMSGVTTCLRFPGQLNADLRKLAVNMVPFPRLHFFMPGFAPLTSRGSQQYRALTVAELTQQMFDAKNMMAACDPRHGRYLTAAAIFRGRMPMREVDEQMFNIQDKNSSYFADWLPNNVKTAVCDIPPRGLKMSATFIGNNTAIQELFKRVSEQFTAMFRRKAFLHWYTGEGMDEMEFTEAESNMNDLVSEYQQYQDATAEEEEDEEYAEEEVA
UniProt Q499Z4: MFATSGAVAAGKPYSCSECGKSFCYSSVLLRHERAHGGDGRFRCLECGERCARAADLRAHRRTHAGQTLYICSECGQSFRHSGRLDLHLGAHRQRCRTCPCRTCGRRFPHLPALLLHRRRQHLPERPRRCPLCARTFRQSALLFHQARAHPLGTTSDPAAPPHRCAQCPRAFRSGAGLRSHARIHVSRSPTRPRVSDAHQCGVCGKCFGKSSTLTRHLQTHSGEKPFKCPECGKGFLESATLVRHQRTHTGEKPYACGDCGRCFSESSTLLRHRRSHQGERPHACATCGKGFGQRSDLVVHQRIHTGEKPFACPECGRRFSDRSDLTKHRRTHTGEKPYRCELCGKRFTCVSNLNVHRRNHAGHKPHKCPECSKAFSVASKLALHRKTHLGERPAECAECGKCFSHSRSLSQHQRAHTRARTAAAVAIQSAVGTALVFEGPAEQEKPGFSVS
UniProt Q15468: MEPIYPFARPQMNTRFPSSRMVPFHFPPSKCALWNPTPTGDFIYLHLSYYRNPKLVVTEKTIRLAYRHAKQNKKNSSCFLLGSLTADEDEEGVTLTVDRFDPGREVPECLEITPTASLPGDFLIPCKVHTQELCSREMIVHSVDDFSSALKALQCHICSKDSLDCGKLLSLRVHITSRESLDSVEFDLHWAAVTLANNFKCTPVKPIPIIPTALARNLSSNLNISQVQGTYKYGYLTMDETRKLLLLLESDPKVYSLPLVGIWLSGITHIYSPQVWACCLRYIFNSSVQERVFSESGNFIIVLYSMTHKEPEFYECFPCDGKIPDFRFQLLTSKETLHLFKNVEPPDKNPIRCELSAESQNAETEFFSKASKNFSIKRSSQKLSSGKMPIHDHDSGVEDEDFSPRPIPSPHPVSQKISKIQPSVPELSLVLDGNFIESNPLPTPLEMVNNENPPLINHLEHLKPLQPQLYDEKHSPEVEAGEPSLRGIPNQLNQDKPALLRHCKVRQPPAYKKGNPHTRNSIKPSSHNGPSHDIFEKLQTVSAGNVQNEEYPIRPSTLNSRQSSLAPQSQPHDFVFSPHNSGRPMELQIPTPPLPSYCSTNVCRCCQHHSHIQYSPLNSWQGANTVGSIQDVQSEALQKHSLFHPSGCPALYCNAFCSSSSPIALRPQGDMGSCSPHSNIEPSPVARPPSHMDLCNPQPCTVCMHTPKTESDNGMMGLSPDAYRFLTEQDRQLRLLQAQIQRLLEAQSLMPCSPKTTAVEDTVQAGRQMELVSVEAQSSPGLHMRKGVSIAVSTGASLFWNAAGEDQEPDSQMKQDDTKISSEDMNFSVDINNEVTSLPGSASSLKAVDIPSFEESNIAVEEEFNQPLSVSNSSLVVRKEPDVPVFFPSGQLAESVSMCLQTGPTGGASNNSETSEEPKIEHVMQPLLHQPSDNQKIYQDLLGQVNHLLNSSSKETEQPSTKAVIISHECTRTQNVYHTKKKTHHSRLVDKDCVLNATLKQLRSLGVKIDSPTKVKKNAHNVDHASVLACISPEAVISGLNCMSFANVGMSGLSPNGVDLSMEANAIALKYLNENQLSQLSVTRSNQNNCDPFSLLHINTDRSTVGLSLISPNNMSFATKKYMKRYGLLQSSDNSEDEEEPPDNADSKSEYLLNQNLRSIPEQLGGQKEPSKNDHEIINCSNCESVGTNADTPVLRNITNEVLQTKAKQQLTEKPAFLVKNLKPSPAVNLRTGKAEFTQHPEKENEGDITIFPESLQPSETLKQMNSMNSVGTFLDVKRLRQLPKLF
UniProt Q16875: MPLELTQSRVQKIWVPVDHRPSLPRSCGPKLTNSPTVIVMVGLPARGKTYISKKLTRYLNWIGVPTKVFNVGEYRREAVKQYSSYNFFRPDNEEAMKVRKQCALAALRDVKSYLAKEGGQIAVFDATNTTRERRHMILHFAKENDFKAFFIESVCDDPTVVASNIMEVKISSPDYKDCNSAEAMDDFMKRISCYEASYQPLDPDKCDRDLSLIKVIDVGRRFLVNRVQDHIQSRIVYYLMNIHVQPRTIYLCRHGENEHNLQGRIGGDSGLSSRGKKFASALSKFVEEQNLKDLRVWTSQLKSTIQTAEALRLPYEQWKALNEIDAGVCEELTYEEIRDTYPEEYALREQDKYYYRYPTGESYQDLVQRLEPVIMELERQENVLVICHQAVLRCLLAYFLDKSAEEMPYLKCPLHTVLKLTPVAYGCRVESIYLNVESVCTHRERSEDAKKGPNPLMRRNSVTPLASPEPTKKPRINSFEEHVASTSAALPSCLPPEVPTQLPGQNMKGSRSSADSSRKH
UniProt Q32MZ4: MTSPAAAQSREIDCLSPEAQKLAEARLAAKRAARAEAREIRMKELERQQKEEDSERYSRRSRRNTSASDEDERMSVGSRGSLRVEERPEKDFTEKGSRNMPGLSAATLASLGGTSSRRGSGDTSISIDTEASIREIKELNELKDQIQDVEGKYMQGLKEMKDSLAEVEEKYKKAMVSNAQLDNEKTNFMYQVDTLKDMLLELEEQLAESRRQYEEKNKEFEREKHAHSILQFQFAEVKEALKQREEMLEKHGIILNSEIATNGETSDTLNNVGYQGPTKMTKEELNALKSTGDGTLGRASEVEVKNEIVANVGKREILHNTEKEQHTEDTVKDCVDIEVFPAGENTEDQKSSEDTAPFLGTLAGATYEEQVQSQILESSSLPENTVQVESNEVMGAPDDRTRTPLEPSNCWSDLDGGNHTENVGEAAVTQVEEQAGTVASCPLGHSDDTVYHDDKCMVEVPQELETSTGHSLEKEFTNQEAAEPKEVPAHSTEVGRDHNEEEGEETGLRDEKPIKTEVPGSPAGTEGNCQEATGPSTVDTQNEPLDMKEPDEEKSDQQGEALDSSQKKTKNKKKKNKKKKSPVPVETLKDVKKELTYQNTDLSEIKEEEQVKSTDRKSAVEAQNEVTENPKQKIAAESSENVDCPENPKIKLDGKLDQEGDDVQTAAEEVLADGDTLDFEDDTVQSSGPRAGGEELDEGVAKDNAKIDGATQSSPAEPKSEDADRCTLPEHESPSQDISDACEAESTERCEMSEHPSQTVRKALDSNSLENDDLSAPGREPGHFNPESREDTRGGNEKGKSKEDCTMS
UniProt Q1KMD3: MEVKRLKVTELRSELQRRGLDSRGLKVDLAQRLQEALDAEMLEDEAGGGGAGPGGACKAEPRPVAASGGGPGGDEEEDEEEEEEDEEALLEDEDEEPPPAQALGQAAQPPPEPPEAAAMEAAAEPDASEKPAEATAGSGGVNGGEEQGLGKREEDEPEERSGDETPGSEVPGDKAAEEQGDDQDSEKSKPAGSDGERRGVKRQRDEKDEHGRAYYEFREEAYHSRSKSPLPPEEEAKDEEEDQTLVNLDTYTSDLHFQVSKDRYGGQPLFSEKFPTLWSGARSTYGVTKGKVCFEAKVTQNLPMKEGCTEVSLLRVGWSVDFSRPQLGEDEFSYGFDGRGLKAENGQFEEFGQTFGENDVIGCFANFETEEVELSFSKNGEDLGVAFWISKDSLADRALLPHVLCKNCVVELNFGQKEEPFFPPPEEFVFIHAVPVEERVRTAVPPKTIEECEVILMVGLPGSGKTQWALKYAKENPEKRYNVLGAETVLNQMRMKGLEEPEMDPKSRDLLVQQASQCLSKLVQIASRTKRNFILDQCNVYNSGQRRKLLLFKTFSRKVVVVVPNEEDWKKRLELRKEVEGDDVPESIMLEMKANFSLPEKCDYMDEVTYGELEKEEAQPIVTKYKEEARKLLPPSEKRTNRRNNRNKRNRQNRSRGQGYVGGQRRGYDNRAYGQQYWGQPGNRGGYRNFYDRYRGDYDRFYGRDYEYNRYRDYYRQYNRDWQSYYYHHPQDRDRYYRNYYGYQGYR
UniProt Q16656: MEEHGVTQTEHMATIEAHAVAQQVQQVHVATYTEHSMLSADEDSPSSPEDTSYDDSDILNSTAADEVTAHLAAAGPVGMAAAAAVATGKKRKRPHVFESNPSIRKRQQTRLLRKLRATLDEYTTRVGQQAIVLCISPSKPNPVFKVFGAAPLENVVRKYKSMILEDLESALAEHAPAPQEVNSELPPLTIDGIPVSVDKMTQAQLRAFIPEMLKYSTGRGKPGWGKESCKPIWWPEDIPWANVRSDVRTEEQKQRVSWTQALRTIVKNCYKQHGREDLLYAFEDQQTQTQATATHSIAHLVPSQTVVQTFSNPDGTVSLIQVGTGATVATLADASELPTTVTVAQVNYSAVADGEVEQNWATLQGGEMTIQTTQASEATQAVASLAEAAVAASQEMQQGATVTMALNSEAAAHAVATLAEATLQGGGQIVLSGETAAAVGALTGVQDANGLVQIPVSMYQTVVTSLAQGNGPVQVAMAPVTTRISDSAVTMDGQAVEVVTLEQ

The other results are listed elsewhere or left out. Small differences around the control level are noise.

Compound in the test: CN[C@@H]1C[C@H]2O[C@@](C)([C@@H]1OC)n1c3ccccc3c3c4c(c5c6ccccc6n2c5c31)C(=O)NC4 [staurosporine]
The experiment in a line: log2 fold change of tryptic peptide abundance, ligand vs vehicle (limited proteolysis) (log2 ratio); higher = more trypsin-susceptible (destabilized). As to conditions: ligand concentration: 20 uM; sample: K562 cleared lysate; digestion: 4 min, 22 C (HT-PELSA RT4min, Orbitrap Astral).
As to “TGIF1 (peptide sequence: DWLYEHR, peptide start residue: 181) (UniProt Q15583)”, the log2 fold change was 0.081. Take “TWISTNB (peptide sequence: SEVSEEVTENGTEEAAKKPK, peptide start residue: 208) (UniProt Q3B726)”: the log2 fold change was 0.325.

As for “UniProt Q15776 (peptide sequence: QIDILGRPVSAR, peptide start residue: 132)”, the log2 fold change is -0.201. For “UniProt Q29980 (peptide sequence: VCEIHEDSSTR, peptide start residue: 118)” the value was -0.216. Under “RALBP1 (peptide sequence: AKAEQQAQEDEEPEWR, peptide start residue: 599) (UniProt Q15311)” stands -0.162. Consider “NDUFA9 (peptide sequence: FGPIPLGSLGWK, peptide start residue: 223) (UniProt Q16795)”, for which the log2 fold change stood at 0.477.

On to “CLEC16A (peptide sequence: GSSDPTVQR, peptide start residue: 862) (UniProt Q2KHT3)”, for which the log2 fold change is -0.122. Turning to “TUBB8 (peptide sequence: AVLVDLEPGTMDSVR, peptide start residue: 63) (UniProt Q3ZCM7)”, the log2 fold change was -0.126. In the case of “TATDN3 (peptide sequence: SAGRPTINLLQEQGAEK, peptide start residue: 150) (UniProt Q17R31)”, the log2 fold change was found to be 0.0147. In the case of “NFE2 (peptide sequence: RKLETIVQLER, peptide start residue: 286) (UniProt Q16621)”, the log2 fold change is -0.43. Consider “C2orf68 (peptide sequence: VSAHTPLDPPMR, peptide start residue: 137) (UniProt Q2NKX9)”, for which the log2 fold change was found to be 0.0991. Under “ZNF672 (peptide sequence: VSDAHQCGVCGK, peptide start residue: 195) (UniProt Q499Z4)” stands -0.749; under “STIL (peptide sequence: NITNEVLQTK, peptide start residue: 1197) (UniProt Q15468)”, -0.17; under “PFKFB3 (peptide sequence: LPYEQWK, peptide start residue: 313) (UniProt Q16875)”, 0.435.

With “LRRFIP1 (peptide sequence: TSPAAAQSR, peptide start residue: 2) (UniProt Q32MZ4)”, the log2 fold change was -0.202. Under “UAP1 (peptide sequence: DVVNVYEPQLQHHVAQK, peptide start residue: 340) (UniProt Q16222)” stands -0.473; under “TBCE (peptide sequence: VEVNGEHATVR, peptide start residue: 14) (UniProt Q15813)”, 0.741. For “UniProt Q15369 (peptide sequence: EIPSHVLSK, peptide start residue: 64)” the value was 0.321; for “UniProt Q15370 (peptide sequence: LYKDDQLLDDGK, peptide start residue: 44)”, -0.409.

Regarding “UAP1L1 (peptide sequence: TLYQLQAER, peptide start residue: 137) (UniProt Q3KQV9)”, the log2 fold change amounted to 0.608. With “UniProt Q15257 (peptide sequence: VSEMWNEVHEEKEQAAK, peptide start residue: 70)”, the log2 fold change was -0.261. For “PSMD5 (peptide sequence: LGPLFSLLNENHR, peptide start residue: 46) (UniProt Q16401)” the value was 0.0819; for “TAF5 (peptide sequence: GNETMLDFR, peptide start residue: 293) (UniProt Q15542)”, -0.28.

As for “HNRNPUL2 (peptide sequence: YGGQPLFSEK, peptide start residue: 264) (UniProt Q1KMD3)”, the log2 fold change came to 0.265. Regarding “TAF7 (peptide sequence: GKLQETQDR, peptide start residue: 290) (UniProt Q15545)”, the log2 fold change turned out to be 0.254. Under “NRF1 (peptide sequence: KRPHVFESNPSIR, peptide start residue: 92) (UniProt Q16656)” stands -0.243. As to “ARL13B (peptide sequence: LEPLGETHHNDFYR, peptide start residue: 394) (UniProt Q3SXY8)”, the log2 fold change is -0.311.

Regarding “PDK1 (peptide sequence: EISLLPDNLLR, peptide start residue: 93) (UniProt Q15118)”, the log2 fold change is -0.184.
